{"source": "patent US7537786B2", "about": "“Complex of drug-carbon nanohorn and a process for producing the complex” (NEC Corporation, priority 2005, dated 2009)", "origin": "cited, not measured here", "details": "25° C.; cited from earlier work"}
{"compound": "C[C@@H]1C[C@H]2[C@@H]3CCC4=CC(=O)C=C[C@]4(C)[C@@]3(F)[C@@H](O)C[C@]2(C)[C@@]1(O)C(=O)CO", "note": "[DEX, Dexamethasone]", "values": [{"measurement": "solubility", "value": 10, "unit": "mg/100 ml H2O"}]}
